In US20240299359A1, “PHARMACEUTICAL COMPOSITION FOR ANIMALS CONTAINING 5-HYDROXY-METHYLIMIDAZOLIDINE-2,4-DIONE COMPOUND AS ACTIVE INGREDIENT” (KYONGBO PHARM. CO., LTD., priority 2021, published 2024):
Several values for one entry are separate records, joined by “and”; a condition that tells them apart may be missing. Equal values may be shown once. Further values from the same series stand in other lists.

Assay: 13-week repeated oral toxicity: weight measurement
Assay type: in vivo, beagle
Experimental: During the 13-week test period starting from the day before administration, the weight was measured a total of 15 times before administration (pre), before administration on the day of administration, and every week over the 13-week test period after the first administration at a predetermined time (remaining feed measurement time) before administration of the test substance (on every Tuesday during the test period).

## CN1C(=O)NC(=O)C1O (stereo not drawn) [KBP-001, 5-hydroxy-1-methylimidazolidine-2,4-dione]
500 mg/kg repeated oral (G3), female, week 0, individual animals
  Weight: 9.9 and 9.8 and 8.8
500 mg/kg repeated oral (G3), female, week 1, individual animals
  Weight: 9.9 (2×) and 9.0
500 mg/kg repeated oral (G3), female, week 2, individual animals
  Weight: 9.8 (2×) and 8.8
500 mg/kg repeated oral (G3), female, week 3, individual animals
  Weight: 9.9 and 10.0 and 9.0
500 mg/kg repeated oral (G3), female, week 4, individual animals
  Weight: 9.9 and 10.2 and 9.2
500 mg/kg repeated oral (G3), female, week 5, individual animals
  Weight: 9.9 and 10.3 and 9.3
500 mg/kg repeated oral (G3), female, week 6, individual animals
  Weight: 9.8 and 10.3 and 9.4
500 mg/kg repeated oral (G3), female, week 7, individual animals
  Weight: 9.8 and 10.1 and 9.4
500 mg/kg repeated oral (G3), female, week 8, individual animals
  Weight: 9.7 and 10.4 and 9.3
500 mg/kg repeated oral (G3), female, week 9, individual animals
  Weight: 9.6 and 10.2 and 9.5
500 mg/kg repeated oral (G3), female, week 10, individual animals
  Weight: 9.6 and 10.4 and 9.5
500 mg/kg repeated oral (G3), female, week 11, individual animals
  Weight: 9.7 and 10.4 and 9.6
500 mg/kg repeated oral (G3), female, week 12, individual animals
  Weight: 9.7 (2×) and 10.4
500 mg/kg repeated oral (G3), female, week 13, individual animals
  Weight: 9.9 and 10.4 and 9.7
500 mg/kg repeated oral (G3), female, week pre, individual animals
  Weight: 9.9 and 9.8 and 8.8
500 mg/kg repeated oral (G3), male, week 0, individual animals
  Weight: 9.1 and 10.5
500 mg/kg repeated oral (G3), male, week 1, individual animals
  Weight: 10.1 and 9.3 and 10.6
500 mg/kg repeated oral (G3), male, week 2, individual animals
  Weight: 9.9 and 9.3 and 10.5
500 mg/kg repeated oral (G3), male, week 3, individual animals
  Weight: 9.8 and 9.3 and 10.5
500 mg/kg repeated oral (G3), male, week 4, individual animals
  Weight: 10.0 and 9.4 and 10.7
500 mg/kg repeated oral (G3), male, week 5, individual animals
  Weight: 10.2 and 9.5 and 10.7
500 mg/kg repeated oral (G3), male, week 6, individual animals
  Weight: 9.6 and 10.6
500 mg/kg repeated oral (G3), male, week 7, individual animals
  Weight: 9.6 and 10.6
500 mg/kg repeated oral (G3), male, week 8, individual animals
  Weight: 9.6 and 10.4
500 mg/kg repeated oral (G3), male, week 9, individual animals
  Weight: 9.5 and 10.5
500 mg/kg repeated oral (G3), male, week 10, individual animals
  Weight: 9.6 and 10.5
500 mg/kg repeated oral (G3), male, week 11, individual animals
  Weight: 9.6 and 10.4
500 mg/kg repeated oral (G3), male, week 12, individual animals
  Weight: 9.7 and 10.5
500 mg/kg repeated oral (G3), male, week 13, individual animals
  Weight: 9.7 and 10.6
500 mg/kg repeated oral (G3), male, week pre, individual animals
  Weight: 9.4 and 10.6
1,000 mg/kg repeated oral (G4), female, week 0, individual animals
  Weight: 9.9 and 9.5 and 8.9
1,000 mg/kg repeated oral (G4), female, week 1, individual animals
  Weight: 9.4 and 9.7 and 9.2
1,000 mg/kg repeated oral (G4), female, week 2, individual animals
  Weight: 9.1 and 9.8 and 9.0
1,000 mg/kg repeated oral (G4), female, week 3, individual animals
  Weight: 9.1 (2×) and 9.9
1,000 mg/kg repeated oral (G4), female, week 4, individual animals
  Weight: 9.4 and 10.1 and 9.2
1,000 mg/kg repeated oral (G4), female, week 5, individual animals
  Weight: 9.4 and 10.0 and 9.2
1,000 mg/kg repeated oral (G4), female, week 6, individual animals
  Weight: 9.3 and 9.9 and 9.0
1,000 mg/kg repeated oral (G4), female, week 7, individual animals
  Weight: 9.3 and 9.9 and 9.1
1,000 mg/kg repeated oral (G4), female, week 8, individual animals
  Weight: 9.3 and 10.0 and 9.2
1,000 mg/kg repeated oral (G4), female, week 9, individual animals
  Weight: 9.5 and 10.2 and 9.4
1,000 mg/kg repeated oral (G4), female, week 10, individual animals
  Weight: 9.6 and 10.3 and 9.4
1,000 mg/kg repeated oral (G4), female, week 11, individual animals
  Weight: 9.6 and 10.3 and 9.5
1,000 mg/kg repeated oral (G4), female, week 12, individual animals
  Weight: 9.6 and 10.3 and 9.5
1,000 mg/kg repeated oral (G4), female, week 13, individual animals
  Weight: 9.5 (2×) and 10.3
1,000 mg/kg repeated oral (G4), female, week pre, individual animals
  Weight: 9.9 and 9.5 and 8.9
1,000 mg/kg repeated oral (G4), male, week 0, individual animals
  Weight: 11.3 and 10.0 and 9.3
1,000 mg/kg repeated oral (G4), male, week 1, individual animals
  Weight: 11.1 and 10.1 and 9.4
1,000 mg/kg repeated oral (G4), male, week 2, individual animals
  Weight: 11.3 and 9.9 and 9.1
1,000 mg/kg repeated oral (G4), male, week 3, individual animals
  Weight: 11.1 and 10.0 and 9.0
1,000 mg/kg repeated oral (G4), male, week 4, individual animals
  Weight: 11.4 and 10.1 and 9.2
1,000 mg/kg repeated oral (G4), male, week 5, individual animals
  Weight: 11.4 and 10.2 and 9.3
1,000 mg/kg repeated oral (G4), male, week 6, individual animals
  Weight: 11.0 and 9.9 and 9.2
1,000 mg/kg repeated oral (G4), male, week 7, individual animals
  Weight: 11.2 and 10.0 and 9.2
1,000 mg/kg repeated oral (G4), male, week 8, individual animals
  Weight: 11.1 and 10.0 and 9.2
1,000 mg/kg repeated oral (G4), male, week 9, individual animals
  Weight: 11.0 and 10.2 and 9.4
1,000 mg/kg repeated oral (G4), male, week 10, individual animals
  Weight: 11.1 and 10.2 and 9.4
1,000 mg/kg repeated oral (G4), male, week 11, individual animals
  Weight: 11.2 and 10.1 and 9.3
1,000 mg/kg repeated oral (G4), male, week 12, individual animals
  Weight: 11.0 and 10.3 and 9.3
1,000 mg/kg repeated oral (G4), male, week 13, individual animals
  Weight: 11.1 and 10.3 and 9.2
1,000 mg/kg repeated oral (G4), male, week pre, individual animals
  Weight: 11.3 and 10.0 and 9.3
